Results on 1 substance are retold here after article PMC12707108, “CpoS-Inc interactions facilitate host cell modulation during Chlamydia trachomatis infection” (Infection and Immunity, 2025).

Protein sequences, listed by entry. Tags and fused reporters are not part of them.
UniProt Q15286: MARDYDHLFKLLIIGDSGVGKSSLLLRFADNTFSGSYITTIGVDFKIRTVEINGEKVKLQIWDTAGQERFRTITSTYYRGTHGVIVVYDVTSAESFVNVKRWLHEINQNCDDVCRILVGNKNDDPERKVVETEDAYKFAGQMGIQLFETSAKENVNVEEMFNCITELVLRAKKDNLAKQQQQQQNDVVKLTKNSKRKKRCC

This experiment addresses CpoS HA-tag (full-length CpoS, CTL0481) (Chlamydia trachomatis serovar L2 (LGV 434/Bu)). The experiment is described as follows: co-IP.

Results are given in words; binding and its absence hold for the method and conditions named. In cells and extracts the contact can be indirect. Binding calls can cover weak binding; strength is not graded here.

Regarding eGFP-Rab35 (from UniProt Q15286 1-201), the binding entry was “binds”.
